From the supplement of paper PMC10849652
This is one part of the list. Residues, ends and D or L forms follow the SMILES beside them. *: point of attachment. Cbz = O=C(OCc1ccccc1)*

Protein sequences, listed by entry. Tags and fused reporters are not part of them. Lines headed by an entry give the natural chain unless they say otherwise; changes in a name come on top.
UniProt Q9NXG2: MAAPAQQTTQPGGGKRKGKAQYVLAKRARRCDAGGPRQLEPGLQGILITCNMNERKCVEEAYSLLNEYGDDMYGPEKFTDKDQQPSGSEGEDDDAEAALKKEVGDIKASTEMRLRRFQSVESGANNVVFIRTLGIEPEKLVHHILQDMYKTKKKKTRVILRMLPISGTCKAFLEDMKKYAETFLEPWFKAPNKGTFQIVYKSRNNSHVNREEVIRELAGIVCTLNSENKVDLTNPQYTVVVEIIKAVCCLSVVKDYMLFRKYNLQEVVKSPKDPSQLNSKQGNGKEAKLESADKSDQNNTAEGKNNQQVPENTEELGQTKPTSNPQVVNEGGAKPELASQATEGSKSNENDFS
UniProt P62380: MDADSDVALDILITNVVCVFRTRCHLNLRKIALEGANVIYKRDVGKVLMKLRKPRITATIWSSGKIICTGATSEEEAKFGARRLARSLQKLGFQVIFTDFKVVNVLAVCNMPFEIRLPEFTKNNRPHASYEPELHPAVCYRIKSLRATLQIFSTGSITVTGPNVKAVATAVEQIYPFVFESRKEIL
UniProt Q8WVM0: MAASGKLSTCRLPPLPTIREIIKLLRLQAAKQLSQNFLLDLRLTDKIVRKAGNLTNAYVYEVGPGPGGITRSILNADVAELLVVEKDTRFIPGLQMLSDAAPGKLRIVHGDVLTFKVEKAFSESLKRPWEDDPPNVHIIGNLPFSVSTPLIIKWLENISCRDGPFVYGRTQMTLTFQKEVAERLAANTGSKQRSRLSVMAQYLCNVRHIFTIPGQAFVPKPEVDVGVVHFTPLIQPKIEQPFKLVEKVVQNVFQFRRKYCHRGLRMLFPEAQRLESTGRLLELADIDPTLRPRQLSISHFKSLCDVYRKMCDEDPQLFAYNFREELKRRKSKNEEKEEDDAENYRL
UniProt Q12788: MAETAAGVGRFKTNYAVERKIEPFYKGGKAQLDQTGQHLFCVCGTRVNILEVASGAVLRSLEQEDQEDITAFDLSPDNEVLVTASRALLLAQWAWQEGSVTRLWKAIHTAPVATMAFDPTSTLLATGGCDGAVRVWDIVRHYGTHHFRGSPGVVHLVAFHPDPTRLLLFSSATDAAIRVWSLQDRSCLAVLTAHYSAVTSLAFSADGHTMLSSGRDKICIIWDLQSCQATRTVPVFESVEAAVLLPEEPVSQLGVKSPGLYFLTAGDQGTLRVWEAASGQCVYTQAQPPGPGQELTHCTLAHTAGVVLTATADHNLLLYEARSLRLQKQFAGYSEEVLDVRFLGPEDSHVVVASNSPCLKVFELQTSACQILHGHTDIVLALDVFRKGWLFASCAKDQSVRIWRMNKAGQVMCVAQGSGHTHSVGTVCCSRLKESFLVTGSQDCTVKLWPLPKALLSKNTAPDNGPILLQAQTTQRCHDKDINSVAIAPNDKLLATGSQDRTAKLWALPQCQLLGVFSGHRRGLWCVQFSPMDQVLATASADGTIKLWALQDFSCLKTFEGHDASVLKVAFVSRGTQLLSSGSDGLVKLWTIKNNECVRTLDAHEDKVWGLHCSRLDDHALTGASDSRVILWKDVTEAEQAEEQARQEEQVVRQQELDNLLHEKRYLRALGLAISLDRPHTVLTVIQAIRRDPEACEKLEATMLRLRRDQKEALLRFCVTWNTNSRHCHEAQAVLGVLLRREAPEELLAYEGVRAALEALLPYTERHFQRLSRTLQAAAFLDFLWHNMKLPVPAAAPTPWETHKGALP
UniProt Q6I9Y2: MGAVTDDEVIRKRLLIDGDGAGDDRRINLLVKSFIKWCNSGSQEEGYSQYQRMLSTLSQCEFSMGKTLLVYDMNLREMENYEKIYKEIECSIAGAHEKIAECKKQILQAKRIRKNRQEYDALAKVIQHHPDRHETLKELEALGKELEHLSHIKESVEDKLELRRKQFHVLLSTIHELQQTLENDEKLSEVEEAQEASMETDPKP
UniProt Q9BV44: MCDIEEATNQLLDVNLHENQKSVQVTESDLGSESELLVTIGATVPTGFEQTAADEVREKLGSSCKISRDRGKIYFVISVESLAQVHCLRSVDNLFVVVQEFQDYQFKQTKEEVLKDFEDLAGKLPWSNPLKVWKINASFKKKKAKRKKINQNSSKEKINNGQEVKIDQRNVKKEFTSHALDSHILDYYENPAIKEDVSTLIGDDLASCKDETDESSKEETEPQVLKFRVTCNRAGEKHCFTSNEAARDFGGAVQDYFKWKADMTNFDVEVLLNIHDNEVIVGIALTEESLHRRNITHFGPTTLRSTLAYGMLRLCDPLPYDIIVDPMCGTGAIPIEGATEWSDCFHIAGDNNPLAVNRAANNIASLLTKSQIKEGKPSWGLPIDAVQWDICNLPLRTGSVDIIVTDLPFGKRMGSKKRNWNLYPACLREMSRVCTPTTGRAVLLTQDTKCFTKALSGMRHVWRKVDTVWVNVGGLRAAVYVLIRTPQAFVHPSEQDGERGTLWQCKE
UniProt O75347: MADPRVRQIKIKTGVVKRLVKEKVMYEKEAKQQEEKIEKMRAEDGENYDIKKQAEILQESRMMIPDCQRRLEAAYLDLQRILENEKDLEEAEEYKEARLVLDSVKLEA
UniProt Q3LXA3: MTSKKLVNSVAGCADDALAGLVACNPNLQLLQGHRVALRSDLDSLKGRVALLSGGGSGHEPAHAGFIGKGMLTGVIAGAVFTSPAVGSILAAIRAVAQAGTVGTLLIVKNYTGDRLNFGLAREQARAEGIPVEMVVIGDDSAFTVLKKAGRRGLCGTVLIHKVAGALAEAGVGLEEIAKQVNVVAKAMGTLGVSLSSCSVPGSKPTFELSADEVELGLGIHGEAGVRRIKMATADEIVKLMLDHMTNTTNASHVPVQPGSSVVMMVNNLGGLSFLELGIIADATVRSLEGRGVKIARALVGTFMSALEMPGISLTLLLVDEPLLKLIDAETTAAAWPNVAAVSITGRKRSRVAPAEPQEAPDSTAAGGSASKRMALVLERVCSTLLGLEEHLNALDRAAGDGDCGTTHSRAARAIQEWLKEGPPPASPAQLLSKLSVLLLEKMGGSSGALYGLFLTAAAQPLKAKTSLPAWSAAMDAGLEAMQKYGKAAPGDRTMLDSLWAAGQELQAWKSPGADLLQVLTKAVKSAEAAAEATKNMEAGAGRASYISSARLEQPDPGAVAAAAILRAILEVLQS
UniProt Q15813: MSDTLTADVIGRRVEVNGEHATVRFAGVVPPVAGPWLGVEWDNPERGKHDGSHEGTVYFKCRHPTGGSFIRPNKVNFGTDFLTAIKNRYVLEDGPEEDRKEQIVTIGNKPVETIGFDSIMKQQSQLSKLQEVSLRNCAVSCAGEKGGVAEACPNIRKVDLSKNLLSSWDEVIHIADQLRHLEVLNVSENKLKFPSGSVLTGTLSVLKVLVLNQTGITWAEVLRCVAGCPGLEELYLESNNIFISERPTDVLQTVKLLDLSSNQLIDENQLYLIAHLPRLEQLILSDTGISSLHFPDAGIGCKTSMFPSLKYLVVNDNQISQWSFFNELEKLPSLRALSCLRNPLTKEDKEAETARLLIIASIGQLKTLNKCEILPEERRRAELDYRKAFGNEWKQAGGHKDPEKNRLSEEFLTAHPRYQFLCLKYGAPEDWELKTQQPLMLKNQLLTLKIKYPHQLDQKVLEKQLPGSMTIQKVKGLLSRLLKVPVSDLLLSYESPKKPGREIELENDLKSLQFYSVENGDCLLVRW
UniProt O43493: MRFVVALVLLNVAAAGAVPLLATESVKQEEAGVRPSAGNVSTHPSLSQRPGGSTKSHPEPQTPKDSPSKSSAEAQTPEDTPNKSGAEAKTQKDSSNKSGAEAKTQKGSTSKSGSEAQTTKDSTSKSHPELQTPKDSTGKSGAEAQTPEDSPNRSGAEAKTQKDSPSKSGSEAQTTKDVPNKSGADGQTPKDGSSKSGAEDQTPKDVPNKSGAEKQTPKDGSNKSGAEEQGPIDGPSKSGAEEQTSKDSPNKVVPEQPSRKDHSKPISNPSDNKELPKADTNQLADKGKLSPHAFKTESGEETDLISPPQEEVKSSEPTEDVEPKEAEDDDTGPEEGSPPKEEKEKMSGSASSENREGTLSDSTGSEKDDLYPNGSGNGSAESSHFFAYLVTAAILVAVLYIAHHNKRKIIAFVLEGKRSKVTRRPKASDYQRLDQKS
UniProt O00142: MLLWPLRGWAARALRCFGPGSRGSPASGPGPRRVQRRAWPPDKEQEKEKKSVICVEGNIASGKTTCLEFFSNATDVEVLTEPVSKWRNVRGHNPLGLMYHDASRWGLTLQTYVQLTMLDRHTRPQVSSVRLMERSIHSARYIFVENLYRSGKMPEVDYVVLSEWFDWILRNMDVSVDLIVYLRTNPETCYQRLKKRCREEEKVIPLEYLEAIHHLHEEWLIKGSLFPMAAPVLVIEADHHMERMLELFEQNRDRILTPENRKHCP
UniProt P15923: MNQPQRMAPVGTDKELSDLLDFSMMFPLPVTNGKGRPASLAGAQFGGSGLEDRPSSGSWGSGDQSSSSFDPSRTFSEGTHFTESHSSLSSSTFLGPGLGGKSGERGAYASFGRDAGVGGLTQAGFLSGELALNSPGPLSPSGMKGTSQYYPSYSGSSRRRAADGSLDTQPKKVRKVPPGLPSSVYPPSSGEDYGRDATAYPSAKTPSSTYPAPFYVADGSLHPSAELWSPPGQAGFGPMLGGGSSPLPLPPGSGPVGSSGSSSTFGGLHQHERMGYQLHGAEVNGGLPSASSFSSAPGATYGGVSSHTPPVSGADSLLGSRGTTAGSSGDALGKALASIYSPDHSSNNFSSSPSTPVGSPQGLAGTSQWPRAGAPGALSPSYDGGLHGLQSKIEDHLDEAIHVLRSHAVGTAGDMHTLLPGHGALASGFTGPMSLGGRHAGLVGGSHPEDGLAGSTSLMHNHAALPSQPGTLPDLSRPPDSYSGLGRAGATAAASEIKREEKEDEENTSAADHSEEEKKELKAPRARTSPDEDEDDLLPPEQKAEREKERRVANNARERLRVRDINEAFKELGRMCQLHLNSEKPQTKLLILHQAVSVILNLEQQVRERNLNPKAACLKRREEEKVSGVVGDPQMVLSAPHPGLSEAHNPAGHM
UniProt P17987, whole entry, looked up: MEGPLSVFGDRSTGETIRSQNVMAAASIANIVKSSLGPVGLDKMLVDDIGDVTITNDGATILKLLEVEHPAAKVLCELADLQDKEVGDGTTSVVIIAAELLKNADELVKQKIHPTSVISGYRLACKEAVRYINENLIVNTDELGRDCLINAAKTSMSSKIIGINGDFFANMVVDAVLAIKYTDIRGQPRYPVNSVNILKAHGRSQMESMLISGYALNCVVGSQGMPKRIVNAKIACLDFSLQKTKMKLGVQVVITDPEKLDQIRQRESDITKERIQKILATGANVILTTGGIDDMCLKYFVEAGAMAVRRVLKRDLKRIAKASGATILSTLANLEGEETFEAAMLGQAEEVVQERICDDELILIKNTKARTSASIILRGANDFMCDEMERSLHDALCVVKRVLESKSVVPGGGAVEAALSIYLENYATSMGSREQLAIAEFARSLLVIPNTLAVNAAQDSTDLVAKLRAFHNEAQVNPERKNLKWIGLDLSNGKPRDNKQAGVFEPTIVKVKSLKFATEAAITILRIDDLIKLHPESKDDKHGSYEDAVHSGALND
UniProt Q92734, whole entry, looked up: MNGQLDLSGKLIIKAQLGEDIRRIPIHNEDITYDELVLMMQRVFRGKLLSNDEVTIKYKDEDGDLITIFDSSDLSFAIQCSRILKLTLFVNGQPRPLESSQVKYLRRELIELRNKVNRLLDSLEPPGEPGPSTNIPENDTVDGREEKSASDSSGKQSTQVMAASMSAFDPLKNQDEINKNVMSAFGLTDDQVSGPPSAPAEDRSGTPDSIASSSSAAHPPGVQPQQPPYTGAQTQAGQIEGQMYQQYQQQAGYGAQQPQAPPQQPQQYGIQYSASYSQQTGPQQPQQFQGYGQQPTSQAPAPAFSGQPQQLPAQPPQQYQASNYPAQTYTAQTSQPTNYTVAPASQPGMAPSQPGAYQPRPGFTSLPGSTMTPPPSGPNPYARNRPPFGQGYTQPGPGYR
UniProt Q9UGI8: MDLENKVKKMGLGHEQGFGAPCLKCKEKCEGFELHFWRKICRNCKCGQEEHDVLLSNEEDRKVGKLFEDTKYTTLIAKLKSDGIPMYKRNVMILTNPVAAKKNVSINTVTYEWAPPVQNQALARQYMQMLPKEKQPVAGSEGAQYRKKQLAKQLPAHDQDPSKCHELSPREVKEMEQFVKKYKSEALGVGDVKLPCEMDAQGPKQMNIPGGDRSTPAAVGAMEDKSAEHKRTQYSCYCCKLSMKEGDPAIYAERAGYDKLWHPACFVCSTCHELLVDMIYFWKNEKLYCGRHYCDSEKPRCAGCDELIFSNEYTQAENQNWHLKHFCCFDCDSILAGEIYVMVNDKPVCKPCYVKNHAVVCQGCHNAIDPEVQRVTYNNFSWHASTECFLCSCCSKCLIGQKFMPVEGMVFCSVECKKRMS

Tests used:
Test in all cases: log2 fold change, soluble protein after heating vs DMSO (PISA); higher = thermal stabilisation; K562 cells, 10 uM, 30 min; active = over 0.2 and 3.5 SD of the protein, either way, in both replicates (recomputed)
erlotinib = compound: C#Cc1cccc(Nc2ncnc3cc(OCCOC)c(OCCOC)cc23)c1 [erlotinib]
Method in brief: (§1)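 Soluble protein was quantified by TMTpro 16plex LC-MS/MS after channel sums were equalised. It was obtained as the supernatant after 21,000xg for 90 min from pooled aliquots of K562 cells (2×10^6 cells/mL, 10 μM compound, 30 min) heated for 3 min across 48°C-58°C and extracted in PBS with 0.5% NP-40 at 4°C. Thermal stability values are relative to control samples and come from duplicates. They are given as log2 fold changes.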

[1] = compound: C/C(=N\NC(=O)C1=CC(=CC=C1)S(=O)(=O)N2CCOCC2)/C3=C(C=CC(=C3)Cl)O
Method in brief: as §1

[2] = compound: C1=CC(=C(C=C1Cl)C2=NC3=NC=CN=C3C(=N2)NC4=CC=NC=C4)F
Method in brief: as §1

[3] = compound: C1=CC(=CC=C1C2=NC3=C(N2)C=C(C=C3)C(=O)N)OC4=CC=C(C=C4)Cl
Method in brief: as §1

[4] = compound: C1=CC2=C(C=CC(=C2)/C=C\3/C(=O)NC(=NCC4=CC=CS4)S3)N=C1
Method in brief: as §1

[5] = compound: C1=CC2=NC=CN=C2C=C1/C=C/3\C(=O)NC(=O)S3
Method in brief: as §1

[6] = compound: C1=CC=C(C=C1)C2=NC(=C(N2)C3=CC=NC=C3)C4=CC(=C(C=C4)Cl)O
Method in brief: as §1

[7] = compound: C1=CC=C2C(=C1)C3=NNC4=CC=CC(=C43)C2=O
Method in brief: as §1

[8] = compound: C1CCN(C1)C(=O)NC2=CC=CC(=C2)NC3=NC=C(C(=N3)NCCC4=CN=CN4)Br
Method in brief: as §1

[9] = compound: C1CN(CCC1(CC2=CC=C(C=C2)Cl)N)C3=NC=NC4=C3C=CN4
Method in brief: as §1

IRAK-1-4 Inhibitor I = compound: C1COCCN1CCN2C3=CC=CC=C3N=C2NC(=O)C4=CC(=CC=C4)[N+](=O)[O-] [IRAK-1-4 Inhibitor I]
Method in brief: as §1

ibrutinib = compound: C=CC(=O)N1CCC[C@@H](n2nc(-c3ccc(Oc4ccccc4)cc3)c3c(N)ncnc32)C1 [ibrutinib]
Method in brief: as §1

[10] = compound: CC(=O)c1cnc2ccc(-c3cc(Cl)c(O)c(Cl)c3)nc2c1N[C@H]1CC[C@H](CN(C)C)CC1
Method in brief: as §1

ralimetinib = compound: CC(C)(C)Cn1c(N)nc2ccc(-c3[nH]c(C(C)(C)C)nc3-c3ccc(F)cc3)nc21 [ralimetinib]
Method in brief: as §1

[11] = compound: CC(C)(O)CC(=O)NCCn1ccc2ncnc(Nc3ccc(Oc4cccc(C(F)(F)F)c4)c(Cl)c3)c21
Method in brief: as §1

[12] = compound: CC(C)C1=C2N=C(C=C(N2N=C1)NCC3=CC=CC=C3)NCCCCCCN
Method in brief: as §1

[13] = compound: CC(C)C[C@@H](C=O)NC(=O)[C@H](CC(C)C)NC(=O)[C@H](CC(C)C)NC(=O)OCc1ccccc1
Method in brief: as §1

pinometostat = compound: CC(C)N(C[C@H]1O[C@@H](n2cnc3c(N)ncnc32)[C@H](O)[C@@H]1O)[C@H]1C[C@@H](CCc2nc3cc(C(C)(C)C)ccc3[nH]2)C1 [pinometostat]
Method in brief: as §1

[14] = compound: CC1=C(C(CC(=O)N1)C2=CC=C(C=C2)C(F)(F)F)C(=O)NC3=C(C=C4C(=C3)C=NN4)F
Method in brief: as §1

[15] = compound: CC1=C(C2=C(C=C1)C(=O)C3=CC=CC=C3N2CCCN)C
Method in brief: as §1

Measured: log2 fold change

THUMPD1 (UniProt Q9NXG2)
inactive: erlotinib 0.014 | [1] 0.02 | [2] 0.055 | [3] -0.014 | [4] 0.038 | [5] 0.012 | [6] -0.02 | [7] -0.003 | [8] 0.004 | [9] 0.019 | IRAK-1-4 Inhibitor I 0.019 | ibrutinib 0.005 | [10] -0.02 | ralimetinib -0.063 | [11] -0.009 | [12] 0.026 | [13] -0.037 | pinometostat -0.059 | [14] 0.029 | [15] 0.027

TBPL1 (UniProt P62380)
inactive: erlotinib -0.041 | [1] 0.172 | [2] 0.138 | [3] 0.056 | [4] 0.027 | [5] -0.043 | [6] 0.094 | [7] 0.024 | [8] -0.033 | [9] 0.047 | IRAK-1-4 Inhibitor I 0.035 | ibrutinib 0 | [10] 0.027 | ralimetinib -0.015 | [11] -0.061 | [12] 0.028 | [13] -0.106 | pinometostat -0.066 | [14] -0.01 | [15] -0.123

TFB1M (UniProt Q8WVM0)
inactive: erlotinib -0.057 | [1] -0.079 | [2] -0.237 | [3] 0.037 | [4] -0.052 | [5] 0.017 | [6] 0.003 | [7] 0.03 | [8] 0.028 | [9] -0.174 | IRAK-1-4 Inhibitor I -0.147 | ibrutinib 0.108 | [10] 0.025 | ralimetinib 0.128 | [11] 0.031 | [12] 0.067 | [13] 0.055 | pinometostat 0.252 | [14] 0.008 | [15] -0.267

TBL3 (UniProt Q12788)
inactive: erlotinib -0.055 | [1] -0.056 | [2] -0.179 | [3] 0.028 | [4] -0.082 | [5] -0.026 | [6] -0.019 | [7] 0.002 | [8] 0.034 | [9] 0.046 | IRAK-1-4 Inhibitor I -0.025 | ibrutinib 0.049 | [10] 0.058 | ralimetinib 0.048 | [11] 0.02 | [12] 0.054 | [13] 0.057 | pinometostat 0.169 | [14] 0.007 | [15] 0.079

THOC7 (UniProt Q6I9Y2)
inactive: erlotinib 0.026 | [1] 0.059 | [2] -0.009 | [3] 0.036 | [4] -0.034 | [5] -0.038 | [6] -0.094 | [7] 0.004 | [8] -0.029 | [9] -0.037 | IRAK-1-4 Inhibitor I -0.069 | ibrutinib -0.019 | [10] -0.068 | ralimetinib 0.057 | [11] 0.043 | [12] -0.025 | [13] 0.186 | pinometostat 0.021 | [14] 0.008 | [15] 0.017

THUMPD3 (UniProt Q9BV44)
inactive: erlotinib -0.001 | [1] 0.036 | [2] 0.072 | [3] 0.005 | [4] 0.029 | [5] 0.016 | [6] 0.039 | [7] 0.006 | [8] -0.059 | [9] 0.044 | IRAK-1-4 Inhibitor I 0.024 | ibrutinib -0.007 | [10] -0.023 | ralimetinib -0.011 | [11] -0.045 | [12] -0.018 | [13] -0.025 | pinometostat -0.021 | [14] 0.007 | [15] 0.101

TBCA (UniProt O75347)
inactive: erlotinib 0.027 | [1] -0.01 | [2] 0.039 | [3] -0.015 | [4] -0.03 | [5] -0.003 | [6] -0.026 | [7] 0.018 | [8] 0.082 | [9] 0.072 | IRAK-1-4 Inhibitor I 0.023 | ibrutinib 0 | [10] 0.023 | ralimetinib -0.038 | [11] 0.031 | [12] 0.064 | [13] 0.014 | pinometostat -0.047 | [14] 0.032 | [15] -0.046

TKFC (UniProt Q3LXA3)
inactive: erlotinib 0.014 | [1] 0.009 | [2] 0.024 | [3] -0.004 | [4] 0.023 | [5] -0.001 | [6] -0.012 | [7] -0.018 | [8] 0.008 | [9] 0.026 | IRAK-1-4 Inhibitor I 0.013 | ibrutinib -0.008 | [10] -0.002 | ralimetinib -0.036 | [11] 0.026 | [12] 0.062 | [13] -0.025 | pinometostat -0.057 | [14] -0.003 | [15] 0.041

TKT, A0A0B4J1R6
inactive: erlotinib 0.088 | [1] -0.16 | [2] -0.133 | [3] -0.071 | [4] 0.245 | [5] -0.015 | [6] -0.143 | [7] 0.035 | [8] 0.155 | [9] 0.014 | IRAK-1-4 Inhibitor I 0.109 | ibrutinib -0.201 | [10] -0.139 | ralimetinib -0.292 | [11] 0.077 | [12] -0.043 | [13] 0.109 | pinometostat -0.177 | [14] 0.004 | [15] 0.044

TBCE (UniProt Q15813)
inactive: erlotinib 0.105 | [1] 0.108 | [2] -0.115 | [3] -0.004 | [4] 0.154 | [5] 0.029 | [6] 0.069 | [7] 0.067 | [8] -0.053 | [9] -0.172 | IRAK-1-4 Inhibitor I -0.158 | ibrutinib -0.059 | [10] -0.038 | ralimetinib 0.173 | [11] 0.001 | [12] -0.2 | [13] 0.104 | pinometostat 0.246 | [14] 0.057 | [15] 0.004

TGOLN2 isoform 7 (UniProt O43493)
inactive: erlotinib -0.022 | [1] -0.023 | [2] 0.03 | [3] 0.01 | [4] 0.027 | [5] 0.006 | [6] 0.067 | [7] -0.003 | [8] 0.037 | [9] 0.062 | IRAK-1-4 Inhibitor I 0.028 | ibrutinib 0.038 | [10] -0.008 | ralimetinib 0.068 | [11] -0.032 | [12] 0.05 | [13] 0.023 | pinometostat 0.029 | [14] -0.012 | [15] -0.073

TK2 isoform 6 (UniProt O00142)
inactive: erlotinib 0.006 | [1] 0.062 | [2] 0.122 | [3] -0.034 | [4] 0.136 | [5] 0.335 | [6] -0.014 | [7] -0.001 | [8] 0.026 | [9] 0.014 | IRAK-1-4 Inhibitor I -0.07 | ibrutinib -0.116 | [10] -0.107 | ralimetinib 0 | [11] -0.051 | [12] 0.128 | [13] -0.044 | pinometostat 0.022 | [14] -0.026 | [15] 0.078

TCF3 (UniProt P15923)
inactive: erlotinib 0.018 | [1] 0.129 | [2] 0.029 | [3] 0.049 | [4] -0.102 | [5] 0.027 | [6] 0.007 | [7] -0.088 | [8] 0.029 | [9] -0.053 | IRAK-1-4 Inhibitor I 0.03 | ibrutinib -0.046 | [10] -0.015 | ralimetinib 0.069 | [11] -0.061 | [12] -0.075 | [13] 0.004 | pinometostat 0.032 | [14] -0.022 | [15] 0.026

TCP1 (UniProt P17987)
inactive: erlotinib -0.018 | [1] 0.001 | [2] 0.024 | [3] -0.012 | [4] -0.007 | [5] -0.017 | [6] -0.012 | [7] 0.015 | [8] -0.001 | [9] 0.011 | IRAK-1-4 Inhibitor I 0.009 | ibrutinib 0.009 | [10] 0.014 | ralimetinib -0.004 | [11] -0.003 | [12] 0.025 | [13] -0.03 | pinometostat -0.02 | [14] 0.034 | [15] 0.023

TFG (UniProt Q92734)
inactive: erlotinib -0.02 | [1] -0.008 | [2] 0.07 | [3] 0.015 | [4] -0.048 | [5] 0.019 | [6] -0.015 | [7] 0.025 | [8] -0.013 | [9] -0.02 | IRAK-1-4 Inhibitor I 0.045 | ibrutinib 0.032 | [10] 0.009 | ralimetinib -0.014 | [11] 0.027 | [12] 0.072 | [13] -0.004 | pinometostat -0.039 | [14] 0.003 | [15] -0.078

TES (UniProt Q9UGI8)
inactive: erlotinib 0.007 | [1] 0.008 | [2] 0.101 | [3] -0.022 | [4] -0.089 | [5] 0.031 | [6] 0.011 | [7] -0.002 | [8] 0.009 | [9] 0.072 | IRAK-1-4 Inhibitor I 0.056 | ibrutinib -0.029 | [10] 0.041 | ralimetinib -0.012 | [11] -0.004 | [12] 0.056 | [13] -0.005 | pinometostat -0.034 | [14] -0.001 | [15] -0.049

2 neighbouring entries out of the list so far, for reference:
TFG (UniProt Q92734)
inactive: erlotinib -0.02 | [1] -0.008 | [2] 0.07 | [3] 0.015 | [4] -0.048 | [5] 0.019 | [6] -0.015 | [7] 0.025 | [8] -0.013 | [9] -0.02 | IRAK-1-4 Inhibitor I 0.045 | ibrutinib 0.032 | [10] 0.009 | ralimetinib -0.014 | [11] 0.027 | [12] 0.072 | [13] -0.004 | pinometostat -0.039 | [14] 0.003 | [15] -0.078

TES (UniProt Q9UGI8)
inactive: erlotinib 0.007 | [1] 0.008 | [2] 0.101 | [3] -0.022 | [4] -0.089 | [5] 0.031 | [6] 0.011 | [7] -0.002 | [8] 0.009 | [9] 0.072 | IRAK-1-4 Inhibitor I 0.056 | ibrutinib -0.029 | [10] 0.041 | ralimetinib -0.012 | [11] -0.004 | [12] 0.056 | [13] -0.005 | pinometostat -0.034 | [14] -0.001 | [15] -0.049
